Measurements: patent publication US20220041582A1, “ISOXAZOLINE COMPOUNDS FOR CONTROLLING INVERTEBRATE PESTS” (FMC Corporation, priority 2018, published 2022)
Some of these results come from one statement about several compounds together.

Tests used:
Type in all cases: in vivo
[1] = tested on: Western Flower Thrips (Frankliniellla occidentalis (Pergande)); experiment: Test H: control of Western Flower Thrips through contact and/or systemic means; conditions: 6 days, 30% or less plant damage and/or 100% mortality
Experimental: Formulation and Spray Methodology for Tests A-H
Test compounds were formulated using a solution containing 10% acetone, 90% water and 300 ppm Activator 90® non-ionic surfactant (Loveland Products, Loveland, Colo., USA). The formulated compounds were applied in 1 mL of liquid through an atomizer nozzle positioned 1.27 cm (0.5 inches) above the top of each test unit. Test compounds were sprayed at the rates indicated, and each test was replicated three times.
For evaluating control of the Western Flower Thrips (Frankliniellla occidentalis (Pergande)) through contact and/or systemic means, the test unit consisted of a small open container with a 8-9-day-old Soleil bean plant inside.
Test compounds were formulated and sprayed at 250, 50, 10 and 2 ppm. After spraying, the test units were allowed to dry for 1 hour, and then ˜60 thrips (adults and nymphs) were added to each unit. A black, screened cap was placed on top, and the test units were held for 6 days at 25° C. and 45-55% relative humidity. Each test unit was then visually assessed for plant damage and insect mortality.

[2] = tested on: fall armyworm (Spodoptera frugiperda (J. E. Smith)); experiment: Test B: control of fall armyworm on corn plant, foliar spray; conditions: 6 days, 40% or less feeding damage and/or 100% mortality
[3] = tested on: diamondback moth (Plutella xylostella (L.)); experiment: Test A: control of diamondback moth on mustard plant, foliar spray; conditions: 6 days, 40% or less feeding damage and/or 100% mortality

SMILES | control efficacy: plant damage (and/or 100% mortality) ([1]; 250 ppm spray) [%] | control efficacy: feeding damage (and/or 100% mortality) ([2]; 50 ppm spray) [%] | control efficacy: feeding damage (and/or 100% mortality) ([2]; 250 ppm spray) [%] | control efficacy: feeding damage (and/or 100% mortality) ([3]; 2 ppm spray) [%] | control efficacy: feeding damage (and/or 100% mortality) ([3]; 10 ppm spray) [%] | control efficacy: feeding damage (and/or 100% mortality) ([3]; 50 ppm spray) [%] | control efficacy: feeding damage (and/or 100% mortality) ([3]; 250 ppm spray) [%] | control efficacy: plant damage (and/or 100% mortality) ([1]; 0.4 ppm spray) [%] | control efficacy: plant damage (and/or 100% mortality) ([1]; 2 ppm spray) [%] | control efficacy: plant damage (and/or 100% mortality) ([1]; 10 ppm spray) [%] | control efficacy: feeding damage (and/or 100% mortality) ([2]; 2 ppm spray) [%] | control efficacy: feeding damage (and/or 100% mortality) ([2]; 10 ppm spray) [%] | control efficacy: feeding damage (and/or 100% mortality) ([2]; 0.4 ppm spray) [%] | control efficacy: feeding damage (and/or 100% mortality) ([3]; 0.4 ppm spray) [%]
CCN1OC[C@@H](NC(=O)c2ccc(C3=NOC(c4cc(Cl)cc(Cl)c4)(C(F)(F)F)C3)c3ccncc23)C1=O (stereo partly shown) [Compound 1] | ≤ 30 | ≤ 40 | ≤ 40 | ≤ 40 | ≤ 40 | ≤ 40 | ≤ 40 | – | – | – | – | – | – | –
CC(C)(C)NC(=O)c1ccc(C2=NOC(c3cc(Cl)c(F)c(Cl)c3)(C(F)(F)F)C2)c2ccncc12 (stereo not shown) [Compound 2, 5-[5-(3,5-dichloro-4-fluorophenyl)-4,5-dihydro-5-(trifluoromethyl)-3-isoxazolyl]-N-(1,1-dimethylethyl)-8-isoquinolinecarboxamide] | ≤ 30 | ≤ 40 | ≤ 40 | ≤ 40 | ≤ 40 | ≤ 40 | ≤ 40 | ≤ 30 | ≤ 30 | ≤ 30 | ≤ 40 | ≤ 40 | – | –
O=C(NCC1CC1)c1ccc(C2=NOC(c3cc(Cl)c(F)c(Cl)c3)(C(F)(F)F)C2)c2ccncc12 (stereo not shown) [Compound 3, N-(cyclopropylmethyl)-5-[5-(3,5-dichloro-4-fluorophenyl)-4,5-dihydro-5-(trifluoromethyl)-3-isoxazolyl]-8-isoquinolinecarboxamide] | – | – | – | ≤ 40 | ≤ 40 | – | – | ≤ 30 | ≤ 30 | ≤ 30 | ≤ 40 | ≤ 40 | ≤ 40 | ≤ 40
O=C(NCc1ncccn1)c1ccc(C2=NOC(c3cc(Cl)c(F)c(Cl)c3)(C(F)(F)F)C2)c2ccncc12 (stereo not shown) [Compound 4, 5-[5-(3,5-dichloro-4-fluorophenyl)-4,5-dihydro-5-(trifluoromethyl)-3-isoxazolyl]-N-(2-pyrimidinylmethyl)-8-isoquinolinecarboxamide] | – | – | – | – | ≤ 40 | – | – | – | – | ≤ 30 | – | ≤ 40 | – | –
C[C@@H](NC(=O)c1ccc(C2=NOC(c3cc(Cl)c(F)c(Cl)c3)(C(F)(F)F)C2)c2ccncc12)C(N)=O (stereo partly shown) [Compound 5] | – | – | – | ≤ 40 | ≤ 40 | – | – | – | ≤ 30 | ≤ 30 | – | – | – | –
COC(=O)[C@@H](C)NC(=O)c1ccc(C2=NOC(c3cc(Cl)c(F)c(Cl)c3)(C(F)(F)F)C2)c2ccncc12 (stereo partly shown) [Compound 6] | – | – | – | ≤ 40 | ≤ 40 | – | – | – | ≤ 30 | ≤ 30 | – | ≤ 40 | – | –
O=C(NCc1cnccn1)c1ccc(C2=NOC(c3cc(Cl)c(F)c(Cl)c3)(C(F)(F)F)C2)c2ccncc12 (stereo not shown) [Compound 7] | – | – | – | ≤ 40 | ≤ 40 | – | – | – | ≤ 30 | ≤ 30 | – | ≤ 40 | – | –
CSC[C@@H](C)NC(=O)c1ccc(C2=NOC(c3cc(Cl)c(F)c(Cl)c3)(C(F)(F)F)C2)c2ccncc12 (stereo partly shown) [Compound 8] | – | – | – | ≤ 40 | ≤ 40 | – | – | – | ≤ 30 | ≤ 30 | – | ≤ 40 | – | –
CSCCNC(=O)c1ccc(C2=NOC(c3cc(Cl)c(F)c(Cl)c3)(C(F)(F)F)C2)c2ccncc12 (stereo not shown) [Compound 9] | – | – | – | ≤ 40 | ≤ 40 | – | – | – | ≤ 30 | ≤ 30 | – | ≤ 40 | – | –
CS(=O)(=O)CCNC(=O)c1ccc(C2=NOC(c3cc(Cl)c(F)c(Cl)c3)(C(F)(F)F)C2)c2ccncc12 (stereo not shown) [Compound 12] | – | – | – | ≤ 40 | ≤ 40 | – | – | – | ≤ 30 | ≤ 30 | – | – | – | –
C[C@H](C[S+](C)[O-])NC(=O)c1ccc(C2=NOC(c3cc(Cl)c(F)c(Cl)c3)(C(F)(F)F)C2)c2ccncc12 (stereo partly shown) [Compound 14] | – | – | – | ≤ 40 | ≤ 40 | – | – | – | – | ≤ 30 | – | – | – | –
CS(=O)(=O)N1CC(NC(=O)c2ccc(C3=NOC(c4cc(Cl)c(F)c(Cl)c4)(C(F)(F)F)C3)c3ccncc23)C1 (stereo not shown) [Compound 21, 5-[5-(3,5-dichloro-4-fluorophenyl)-4,5-dihydro-5-(trifluoromethyl)-3-isoxazolyl]-N-[1-(methylsulfonyl)-3-azetidinyl]-8-isoquinolinecarboxamide] | – | – | – | ≤ 40 | ≤ 40 | – | – | – | – | – | – | – | – | –
